{"source": "paper PMC7819943", "about": "“Rice protein-binding microarrays: a tool to detect cis-acting elements near promoter regions in rice”", "note": "The other results are listed elsewhere or left out."}
{"target": "T1, OsSMF1 (Oryza sativa, UniProt Q6ZLB0 1-436)", "T1 sequence": "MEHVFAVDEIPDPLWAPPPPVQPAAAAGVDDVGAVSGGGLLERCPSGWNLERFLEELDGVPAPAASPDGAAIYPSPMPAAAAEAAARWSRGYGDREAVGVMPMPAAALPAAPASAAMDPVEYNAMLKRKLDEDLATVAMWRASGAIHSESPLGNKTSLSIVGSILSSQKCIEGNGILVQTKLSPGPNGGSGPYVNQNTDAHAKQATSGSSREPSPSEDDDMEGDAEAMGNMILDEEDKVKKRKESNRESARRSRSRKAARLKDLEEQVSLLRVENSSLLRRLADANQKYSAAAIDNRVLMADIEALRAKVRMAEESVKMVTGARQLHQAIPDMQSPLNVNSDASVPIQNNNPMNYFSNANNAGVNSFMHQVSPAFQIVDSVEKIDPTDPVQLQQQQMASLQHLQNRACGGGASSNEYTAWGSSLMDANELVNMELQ", "assay": "protein-binding microarray (RPBM); PBS, 2% BSA, 51.3 ng/ul salmon testes DNA, 50 uM zinc acetate, 200 nM TF, 25 C, 1 h; high values mean tight binding", "details": "protein: recombinant; tags: N-terminal polyhistidine and DsRed monomer fusion (pET32a); chain copies: 2; label: CyDye5-dUTP incorporated in the synthesized complementary strand; 3' TTTTT single-stranded linker to array surface; dsDNA, one strand shown", "summary_of_the_method": "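Binding signal is reported as fluorescence intensity per feature (arbitrary units) from an Axon 4000B scanner. Incubation used 200 nM of each Ni–NTA-purified, N-terminally polyhistidine- and DsRed-fused transcription factor from E. coli BL21-CodonPlus on a double-stranded custom Agilent array for 1 h at 25 °C, with 50 µM zinc acetate in the buffer, followed by washing.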"}
{"sequence": "TTGATGGGATATGTCGGGCTGCACGTCGCCTGACACACGCCGGAGTCACCTAGTGCAG", "binding signal": "3310 fluorescence intensity (a.u.)"}
{"sequence": "ACCATGATCCTGTCATGTTGGCCTTTCCACGTCCTTACAACGGAGTCACCTAGTGCAG", "binding signal": "5820 fluorescence intensity (a.u.)"}
{"sequence": "CCGTGCACGTGACTAGTGTACGTCAGCCTCACCAAGAACGCGGAGTCACCTAGTGCAG", "binding signal": "5470 fluorescence intensity (a.u.)"}
{"sequence": "TGATGCCGGATTGCCAATGGGGTTGGGTTGGTCTGAATGACGGAGTCACCTAGTGCAG", "binding signal": "3460 fluorescence intensity (a.u.)"}
{"sequence": "CCCACATGTCGGTCCAATTCTCCCTCCAGCCACTCCCGACCGGAGTCACCTAGTGCAG", "binding signal": "3220 fluorescence intensity (a.u.)"}
{"sequence": "AAAATCTTCCCAACAGTAGTGTGTCATCTCATCTCCCTCTCGGAGTCACCTAGTGCAG", "binding signal": "4800 fluorescence intensity (a.u.)"}
{"sequence": "GCGCCGCCACAGTTAGCCTATGGAGTCCCCGTGTGCGTGTCGGAGTCACCTAGTGCAG", "binding signal": "5460 fluorescence intensity (a.u.)"}
{"sequence": "TCTCTGCTTCTCGTTGTTCTTGGTTGGTTGTTGTTGTAGACGGAGTCACCTAGTGCAG", "binding signal": "3440 fluorescence intensity (a.u.)"}
{"sequence": "GCCCCTCATCTATAAATATATGGATTAAAATTTTAGGGATCGGAGTCACCTAGTGCAG", "binding signal": "23600 fluorescence intensity (a.u.)"}
{"sequence": "TGTACCATTCCATCCATGTTAGAGAATGAGCTCTGACATGCGGAGTCACCTAGTGCAG", "binding signal": "3540 fluorescence intensity (a.u.)"}
{"sequence": "CTTATGAAATTTACTCCAAGTCACCAAGTGTAGCCCCACACGGAGTCACCTAGTGCAG", "binding signal": "5240 fluorescence intensity (a.u.)"}
{"sequence": "CCTTCCTACGTGGCCTCCGGCCCCACCTCCCGCCCGTTGCCGGAGTCACCTAGTGCAG", "binding signal": "13400 fluorescence intensity (a.u.)"}
{"sequence": "TGATGAAACACACGTGCATGCACCGGTCACTTTGATCGAGCGGAGTCACCTAGTGCAG", "binding signal": "3900 fluorescence intensity (a.u.)"}
{"sequence": "GCCAACGAGGTCGCGTTCGACAAGGTGAAGGACGCCGGCGCGGAGTCACCTAGTGCAG", "binding signal": "39600 fluorescence intensity (a.u.)"}
{"sequence": "AAGAGAAGAGAACGGCGGTAGAGAGGAGGGAGGTGGCGGCCGGAGTCACCTAGTGCAG", "binding signal": "3450 fluorescence intensity (a.u.)"}
{"sequence": "GCATCAAGTGAACAGGCCCTTTGTGTTGTACAGATCCTTCCGGAGTCACCTAGTGCAG", "binding signal": "12900 fluorescence intensity (a.u.)"}
{"sequence": "TTGTGGATTCTCTGATGTAAACGAACAAACTATCTGTTTCCGGAGTCACCTAGTGCAG", "binding signal": "3190 fluorescence intensity (a.u.)"}
{"sequence": "TTTCGGTTCATGTGCCACGATTGATCTACTCGATTGATATCGGAGTCACCTAGTGCAG", "binding signal": "3180 fluorescence intensity (a.u.)"}
{"sequence": "TTTTCTACTGTTAAATGGCGCTTAGAGATGATGAGGCAAACGGAGTCACCTAGTGCAG", "binding signal": "3160 fluorescence intensity (a.u.)"}
{"sequence": "TTATGCAGCGCACCAGCGTCAATATGTGCAGTGTGCGACGCGGAGTCACCTAGTGCAG", "binding signal": "3440 fluorescence intensity (a.u.)"}
{"sequence": "GAGGAGGGGATTGGGTGCTTGGAAAGCATGGCGCGGCAGTCGGAGTCACCTAGTGCAG", "binding signal": "4440 fluorescence intensity (a.u.)"}
{"sequence": "ATTCAGTCTTACCCCTATTAAATGTGCATGACACACCAGTCGGAGTCACCTAGTGCAG", "binding signal": "4940 fluorescence intensity (a.u.)"}
{"sequence": "GAGGCCGGCGAGAAGGGTGCTCGCCACGCTGTCCCCATTTCGGAGTCACCTAGTGCAG", "binding signal": "3810 fluorescence intensity (a.u.)"}
{"sequence": "GCGGCTGCGACCTCCCGCTGCCGTGTCGGTCGCTCGGCCTCGGAGTCACCTAGTGCAG", "binding signal": "4020 fluorescence intensity (a.u.)"}
{"sequence": "ACTTGGACCCGCTCTCTCATCTCTTTTCTCTCCATCCCCGCGGAGTCACCTAGTGCAG", "binding signal": "5820 fluorescence intensity (a.u.)"}
{"sequence": "GGCCCAATGACACAAACGAAACCTCCTGAGCTCTGACTTTCGGAGTCACCTAGTGCAG", "binding signal": "38200 fluorescence intensity (a.u.)"}
{"sequence": "CATTAAATATTTGGACACATCACACATGTATGGAGCGTTACGGAGTCACCTAGTGCAG", "binding signal": "4010 fluorescence intensity (a.u.)"}
{"sequence": "TCAAGTAAATGACATCACTAAACATGATATCATGCTCGCTCGGAGTCACCTAGTGCAG", "binding signal": "5070 fluorescence intensity (a.u.)"}
{"sequence": "CCCCTATTTTGTTACCTCATTATTCTCGTATTCCCCTTTTCGGAGTCACCTAGTGCAG", "binding signal": "3280 fluorescence intensity (a.u.)"}
{"sequence": "CGGGGCAGTGACCACCACCACCACATCACCCACCGCATTCCGGAGTCACCTAGTGCAG", "binding signal": "6350 fluorescence intensity (a.u.)"}
{"sequence": "ATGCACACTGTTCTCTGCCACGCGGCGGCGGTGTGGGACCCGGAGTCACCTAGTGCAG", "binding signal": "11600 fluorescence intensity (a.u.)"}
{"sequence": "TATAAACAATTAACCTATATATCTAAGTGCTGATTTAACCCGGAGTCACCTAGTGCAG", "binding signal": "3190 fluorescence intensity (a.u.)"}
{"sequence": "CCAACCCAGAGGCCATCAACGCAAGAACACATTCTCACCTCGGAGTCACCTAGTGCAG", "binding signal": "31700 fluorescence intensity (a.u.)"}
{"sequence": "TTATCTTATCTACGTACGACTTTGGTGATGTGATGGTATGCGGAGTCACCTAGTGCAG", "binding signal": "3190 fluorescence intensity (a.u.)"}
{"sequence": "TAGGATTCAGCTCCTTCCTATTAGGGGTTCACCCGCGAGTCGGAGTCACCTAGTGCAG", "binding signal": "13800 fluorescence intensity (a.u.)"}
{"sequence": "TAGAATTGAGAGGGAGGGAGTATAGGGCCTGTTTAGTTCGCGGAGTCACCTAGTGCAG", "binding signal": "3300 fluorescence intensity (a.u.)"}
{"sequence": "GAGAAGGACGCACACCTCACCATCGCGGCCCCTGCCACGTCGGAGTCACCTAGTGCAG", "binding signal": "9310 fluorescence intensity (a.u.)"}
{"sequence": "TGGTGGTGGGTATGGCGTTAGATCCATCCACGCCTTCGTGCGGAGTCACCTAGTGCAG", "binding signal": "3760 fluorescence intensity (a.u.)"}
{"sequence": "TCCCGCCACGCCACCCCACTGTTTCATTCCCTCGTGGCGCCGGAGTCACCTAGTGCAG", "binding signal": "8150 fluorescence intensity (a.u.)"}
{"sequence": "CACCGCTCCTCCTCTGTTCCTTCCCATCGTCAGCATCGCCCGGAGTCACCTAGTGCAG", "binding signal": "6030 fluorescence intensity (a.u.)"}
{"sequence": "TGTGACAGAGGAAGTACACGGTATTATGGCATGTGTACCGCGGAGTCACCTAGTGCAG", "binding signal": "3390 fluorescence intensity (a.u.)"}
{"sequence": "CCCTCCGCCACGCCGCTCTCGACACCTCCTCCGTCGGCCTCGGAGTCACCTAGTGCAG", "binding signal": "3460 fluorescence intensity (a.u.)"}
{"sequence": "CACGCCTCCTCCGATGAGTCACTCTACGATGATTGATGCGCGGAGTCACCTAGTGCAG", "binding signal": "6220 fluorescence intensity (a.u.)"}
{"sequence": "AAATTCAGAGACTGGGCAGTTTGCACGCGTCATCATCCATCGGAGTCACCTAGTGCAG", "binding signal": "10400 fluorescence intensity (a.u.)"}
{"sequence": "GTCGGTCGATAGCGAACTGACGTTGGCTCGATTCGCCATTCGGAGTCACCTAGTGCAG", "binding signal": "3260 fluorescence intensity (a.u.)"}
{"sequence": "TGATTGCTGGCACAAGCCACCGCGTCATGGTTGCTTGGTGCGGAGTCACCTAGTGCAG", "binding signal": "3150 fluorescence intensity (a.u.)"}
{"sequence": "AATAGGGGAAAGCCATAAAGTGTATGTGTAACCACCACCTCGGAGTCACCTAGTGCAG", "binding signal": "3150 fluorescence intensity (a.u.)"}
{"sequence": "TCCGATTTTATCCTACGTGACGGCTGAGTCAGCGTAGGACCGGAGTCACCTAGTGCAG", "binding signal": "9600 fluorescence intensity (a.u.)"}
{"sequence": "GGGCCTCCCCTCCTCCCTTCGCTGGCGAGAGGACGGAGACCGGAGTCACCTAGTGCAG", "binding signal": "3400 fluorescence intensity (a.u.)"}
{"sequence": "TGTCCGACGTGATGGCTGAGTCAGCGTGGGACCCACGTGGCGGAGTCACCTAGTGCAG", "binding signal": "22600 fluorescence intensity (a.u.)"}
{"sequence": "AAAACAGCTTCATCTTTGCCACCGAGCCCCACCACGTCATCGGAGTCACCTAGTGCAG", "binding signal": "13700 fluorescence intensity (a.u.)"}
{"sequence": "GTTGAAACTCTACCCACAAGGGCTATATCCACGTCAGTCACGGAGTCACCTAGTGCAG", "binding signal": "15100 fluorescence intensity (a.u.)"}
{"sequence": "CCGGTGCGGGTGCCCACACGTCATGGAGAGGGCGAGGCAGCGGAGTCACCTAGTGCAG", "binding signal": "3880 fluorescence intensity (a.u.)"}
{"sequence": "GCAAAGCACCAGCCCAGCCAGCGCGGCGCCAAACTCCACCCGGAGTCACCTAGTGCAG", "binding signal": "3470 fluorescence intensity (a.u.)"}
